The list does not hold the whole screen: it gathers tests that were run many times, whatever their T/C, doses with no T/C, and many T/C values between a quarter and a half above the control. Other doses and runs of a compound stand elsewhere. T/C is the treated group as % of the vehicle group. Some entries give survivors of the animals treated and no T/C: the source holds a T/C of zero for them, seemingly a mark for toxic or unscored doses. Some doses without a T/C left all or most animals alive at the check, yet need not have been tolerated: survival well below the control is almost never listed, so the zero probably covers shortened survival too. Counts of survivors are from the toxicity check (mostly the fifth day) where no day follows; animals may have died later. Schedule codes are those of the source, taken here to give the interval after Q, in days (D) or hours (H), and the number of doses after X. Some schedule codes hold Z or #, which are not explained here. Where survival is the endpoint, this PubChem deposit counts one and a half times the control or more as active, and values a quarter to a half above the control carry no call in these data; other NCI protocols may use other cut-offs.
Tested on: L1210 leukemia ip in BDF1 mice, survival T/C
Assay: NCI In Vivo Anticancer Drug Screen. Data for tumor model L1210 Leukemia (intraperitoneal) in B6D2F1 (BDF1) mice
Conditions: T/C endpoint: mean survival time, higher T/C = longer survival

Cc1cc2c(c3oc(C4(C)OC4C4OC4C)cc(=O)c13)C(=O)c1c(O)c(C3CC(C)(N(C)C)C(O)C(C)O3)cc(C3CC(N(C)C)C(O)C(C)O3)c1C2=O (stereo not drawn)
survivor count (dose: 0.24 mg/kg/injection, schedule: Q01DX009 (ip), vehicle: other): 10 of 10
survivor count (dose: 0.48 mg/kg/injection, schedule: Q01DX009 (ip), vehicle: other): 10 of 10
survivor count (dose: 0.48 mg/kg/injection, schedule: Q01DX009 (ip), vehicle: saline): 10 of 10
survivor count (dose: 0.96 mg/kg/injection, schedule: Q01DX009 (ip), vehicle: other): 10 of 10
survivor count (dose: 0.96 mg/kg/injection, schedule: Q01DX009 (ip), vehicle: saline): 10 of 10
T/C (dose: 24.0 micrograms/kg/injection, schedule: Q01DX015 (ip), vehicle: saline): 127 % of control
T/C (dose: 37.0 micrograms/kg/injection, schedule: Q01DX001 (ip), vehicle: carboxymethylcellulose (CMC)): 125 % of control
T/C (dose: 48.0 micrograms/kg/injection, schedule: Q01DX015 (ip), vehicle: saline): 127 % of control
survivor count (dose: 100.0 micrograms/kg/injection, schedule: Q01DX Z (ip), vehicle: carboxymethylcellulose (CMC)): 6 of 6
survivor count (dose: 150.0 micrograms/kg/injection, schedule: Q01DX001 (ip), vehicle: carboxymethylcellulose (CMC)): 2 of 6
survivor count (dose: 192.0 micrograms/kg/injection, schedule: Q01DX015 (ip), vehicle: saline): 6 of 6
survivor count (dose: 200.0 micrograms/kg/injection, schedule: Q01DX Z (ip), vehicle: carboxymethylcellulose (CMC)): 2 of 6
survivor count (dose: 300.0 micrograms/kg/injection, schedule: Q01DX001 (ip), vehicle: carboxymethylcellulose (CMC)): 0 of 6

Source: PubChem BioAssay AID248 (DTP/NCI, 2004)
